Primary screen of a compound library

Results are given as percent effect. How 0% and 100% were set is not recorded. Most values in the screen are low, and negative values occur. Compounds were drawn at random from those tested, without regard to their results. Two or more numbers in one place are separate tests of the same structure; such repeats can differ widely.

Mtb cholesterol medium: 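Growth of Mycobacterium tuberculosis over 4 days (cholesterol / DPPC medium with tyloxapol); the read-out is not stated. Tested at 50 µM. Higher reads as more growth inhibition (inferred: compounds with an IC50 in retests scored well above the rest). About 69,000 compounds were tested under these conditions; 0.54% (about 370) showed 50% or more at least once.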
Mtb glucose medium: 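Whole-cell growth test on Mycobacterium tuberculosis, read after 3 days in glucose-containing 7H9 medium; the read-out is not stated. Tested at 50 µM. Direction is inferred from retests: higher values go with more growth inhibition. Size under these conditions: about 69,000 compounds, about 760 of them at 50% or above in at least one test.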

| # | structure | Mtb cholesterol medium | Mtb glucose medium |
|---|---|---|---|
| 1 | `CCCn1ncc(CN(Cc2ccsc2)Cc2ccco2)c1C` | 10.01 | 10.13 |
| 2 | `CCOCC1CN(C(=O)c2ccncn2)Cc2cnn(C)c21.O=C(O)C(F)(F)F` (stereo not drawn) | -18.34 | -2.629 and -12.43 |
| 3 | `COc1cc(F)ccc1C(C(=O)O)N(C)Cc1ccon1` (stereo not drawn) | -13.12 and 9.626 | -7.124 |
| 4 | `O=C(NCc1nn(-c2ccccc2)c2c1CCC2)N1CCCC(O)C1` (stereo not drawn) | 32.99 | 32.25 |
| 5 | `CCn1nc2c(cc1=O)CN(CCOc1ccc(C#N)cc1)CC2` | 18.73 | 14.47 and 24.77 |
| 6 | `CN1CCCC(c2ccnc(C(=O)NC3CC3)c2)C1` (stereo not drawn) | 13.14 | 7.974 |
| 7 | `Cc1cc(N(C)Cc2ncc[nH]2)nc(-c2cccnc2)n1` | 0.9585 | 20.74 |
| 8 | `COc1ccc2c(c1)nc1n2[C@@H](CNCc2nccs2)COC1` | 22.94 | 39.15 and 30.33 |
| 9 | `CN(Cc1ccccc1F)C(=O)c1ccoc1` | 3.483 | 18.04 |
| 10 | `O=C(c1csc(-c2ccco2)n1)N(CC1CCOC1)C1CC1` (stereo not drawn) | -19.77 | -2.829 |
| 11 | `CC(C)NC(=O)C1(CC2CC(c3ccc(F)cc3)=NO2)CCNCC1.O=C(O)CC(O)(CC(=O)O)C(=O)O` (stereo not drawn) | -8.446 and 9.485 | -9.945 |
| 12 | `CC(=O)N(CCc1ccccc1)CC(=O)NC1(C#N)CC1` | 15.18 | 17.36 |
| 13 | `CCOc1ccc(OCCN2CCC(N3CCNC3=O)CC2)cc1` | 3.639 | -23.42 |
| 14 | `Cn1cc(-c2ncc3c(c2C(=O)O)CCN(Cc2ccco2)C3)cn1.O=C(O)C(F)(F)F` | 5.304 | -5.574 |
| 15 | `O=C(O)C(F)(F)F.[H][C@@]12OCCN(CC3CCOCC3)[C@@]1([H])CC[C@H]2OC` | -10.65 and -0.07674 | 13.07 |
| 16 | `CC(C)c1noc(CN2CCN(C(=O)c3ccncc3F)CC2)n1` | 12.52 | 13.57 and -3.716 |
| 17 | `[H][C@@]12CN(S(C)(=O)=O)C[C@]1(C(=O)NC)CCC21CCN(C(=O)C(C)C)CC1` | -3.014 | 16.08 |
| 18 | `CCOc1ccc(-c2nc(CN(C)Cc3c(C)noc3C)cs2)cc1` | 14.99 | 17.82 and 32.07 |
| 19 | `CC(=O)NCCCSCCOc1cccc(C#N)c1` | -5.296 | 9.966 |
| 20 | `Cc1nc(CN2CCN(CCOc3ccc(C(C)C)c(C)c3)CC2)no1` | -8.989 | 23.28 |
| 21 | `CC(NCCCN1CCCN(C)CC1)C(C)(C)C` (stereo not drawn) | -14.33 | -26.98 |
| 22 | `COc1ccc(NC(=O)N2CCOCC(CN(C)C)C2)c(C)c1` (stereo not drawn) | -12.39 | -23.7 and -3.57 |
| 23 | `O=C(O)C(F)(F)F.[H][C@@]12CCN(Cc3ccoc3)[C@]1([H])CC[C@H](C(=O)NCc1cccs1)O2` | -2.161 | -16.77 |
| 24 | `Cc1ccccc1CNC(=O)Cn1nc(-c2ccc(F)cc2)oc1=O` | 1.585 | 6.411 |
| 25 | `CC(C)N1CCC(N2CCN(C3CCC3)CC2CCO)CC1` (stereo not drawn) | 3.609 | -1.511 and 1.704 |
| 26 | `CC(C)N(Cc1cccc(Cl)c1)Cc1nnsc1Cl` | 26.31 | 28.3 |
| 27 | `Cc1n[nH]c(C)c1NC(=O)Nc1cccnc1N1CCCC1` | -20.92 | -22.89 |
| 28 | `Cc1nc(N2CCN(S(C)(=O)=O)CC2)cc(-n2cnc(C)c2C)n1` | -0.2028 and 4.539 | 19.76 |
| 29 | `O=C(O)C(F)(F)F.[H][C@@]12COC[C@]1([H])[C@@H](OCC1CC1)CN2Cc1nccs1` | -14.87 | -36.53 |
| 30 | `CC(C)NC(=O)N1CCN(C(=O)N(C)C)CC2(CC(=O)N(C)C2)C1` (stereo not drawn) | -2.708 and 5.372 | -17.32 |
| 31 | `Cc1ccn(-c2ccc(NCc3cccnc3N3CCCCC3)nn2)n1` | -119.6 and 9.22 | 31.92 |
| 32 | `O=C(NC1CCN(c2ncccc2F)C1)c1cccc(-n2ccnc2)c1` (stereo not drawn) | 21.59 | 16.32 |
| 33 | `CCOC(=O)N1CCNC(c2cccs2)C1` (stereo not drawn) | -16 | -21.53 and -9.286 |
| 34 | `CC(C)CNC(=O)c1cn(C(C)C)cc2c(=O)[nH]nc1-2` | -12.47 | 0.4243 |
| 35 | `c1ccc2c(c1)ccn2CCCNC1CCOC2(CCOCC2)C1` (stereo not drawn) | -17.98 | -15.86 |
| 36 | `O[C@@H]1CN(c2cnc3ccccc3n2)CC[C@H]1c1ccc2c(c1)OCO2` | 80.2 | 81.52 |
| 37 | `O=C(O)C(F)(F)F.[H][C@]12CC[C@@]3(N=C(CC)N(CC4CC4)C3=O)[C@@]1([H])CN(CC(=O)N(C)C)C2` | -6.046 | -13.97 |
| 38 | `CN(Cc1ccccn1)C1COC2(CCN(Cc3nccs3)CC2)C1` (stereo not drawn) | 22.11 | 25.84 |
| 39 | `CC(C)COC(=O)N1CCCN(C(=O)c2ccnc(N(C)C)c2)CC1` | -6.354 | -10.7 and 4.464 |
| 40 | `Cc1cccnc1CN(C)c1ncnc2[nH]ccc12` | -1.851 | 12.2 |
| 41 | `O=C(Cc1ccccc1)N1Cc2nccn2CC(CN2CCCC2)C1.O=C(O)C(F)(F)F` (stereo not drawn) | -20.79 | -13.71 |
| 42 | `CN1CC2(CCCN(CCOCc3ccccc3)C2)OC1=O` (stereo not drawn) | 7.146 | -4.357 |
| 43 | `NC1CCN(C(=O)c2cnc(Cc3c(Cl)cccc3Cl)nc2O)C1` (stereo not drawn) | -36.35 | -35.09 |
| 44 | `COC(=O)N1CCCN(C(=O)c2cccc3cccnc23)CC1` | 14.93 | 12.79 |
| 45 | `O=C(O)C(F)(F)F.O=C(O)C(F)(F)F.[H][C@]12CCN(CCN(C)C)[C@@]1([H])CC[C@H](COCC(=O)N1CCCC1)O2` | -5.316 | -24.4 |
| 46 | `CCOc1ncccc1C(=O)N1CCCC1c1c(C)nn(C)c1Cl` (stereo not drawn) | -20.96 | -30.14 |
| 47 | `COC(=O)c1cc(C(=O)N2CCOC(C)(C)C2)n(-c2ccccc2)n1` | 8.842 | -0.9952 |
| 48 | `Cc1nc(C)n(CC2CN(c3ncnc4[nH]ccc34)CCO2)n1` (stereo not drawn) | 6.782 | 13.89 |
| 49 | `CCN1CCc2c(CNC(=O)c3nccn3C)cncc2C1.Cl.Cl.Cl` | -9.112 | -21.05 |
| 50 | `Cc1ccc(CN2CCn3cc(CN4CCN(C)CC4)nc3C2)cc1.O=C(O)C(F)(F)F.O=C(O)C(F)(F)F.O=C(O)C(F)(F)F` | -14.59 | 22.08 |
| 51 | `NC(=O)C1CCCN1Cc1cccc(NC(=O)c2ccc(Cl)cc2F)c1` (stereo not drawn) | -7.539 and -7.472 | -8.391 |
| 52 | `CC(=O)NC1CCN(c2c(C#N)cnc3c(C)cc(F)cc23)CC1` | -16.9 | 9.213 |
| 53 | `Cc1nc(C2CCCN2C(=O)COCCOc2ccccc2)no1` (stereo not drawn) | -173.8 and -2.447 | 15.65 |
| 54 | `CCCOCC(=O)N1CCc2nc(NC)nc(C(=O)N3CCCC3)c2C1` | 7.774 | 2.138 |
| 55 | `CC(=O)NCCCNCc1cc(F)ccc1Br` | -4.856 | 36.6 and 8.909 |
| 56 | `[H][C@]12CCN(S(=O)(=O)c3ccccc3)[C@@]1([H])CC[C@H](COC)O2` | -0.05016 | 16.69 |
| 57 | `Cc1cccc(-n2nc(CC(C)C)nc2CCC(=O)N(C)C)c1` | -7.764 | 28.77 |
| 58 | `NC(=O)Cn1cc(NC(=O)N2CCN(c3ccccc3)CC2)cn1` | 2.373 | 1.141 |
| 59 | `O=C(O)C(F)(F)F.[H][C@@]12OCCN(C(=O)c3cnccn3)[C@@]1([H])CC[C@H]2OCc1cccnc1` | -2.147 | -0.1754 and -5.995 |
| 60 | `CC1CN(CC(=O)Nc2nncs2)CCN1c1nccs1` (stereo not drawn) | -22.09 | -19.77 |
| 61 | `Cc1nc(C(=O)N(C)CC(=O)N(C)C)nn1-c1ccccc1C(C)C` | -15.39 | -2.542 |
| 62 | `Cc1nc(-c2ccc(S(=O)(=O)N3CCC=C(F)C3)cc2)co1` | 5.176 | -10.64 and 7.142 |
| 63 | `[H][C@]12CNC[C@@]1(C(=O)NCc1c(C)noc1C)CN(C(=O)COC)C2` | -5.163 and -2.053 | 10.05 |
| 64 | `Cc1csc(C2(NC(=O)CCNC(=O)C(C)(C)C)CCCC2)n1` | -4.877 | 19.59 |
| 65 | `CC1CC(NS(=O)(=O)c2ccc(C(F)(F)F)nc2)C1` (stereo not drawn) | -13.08 | -6.377 |
| 66 | `CC(=O)N1CCC2(CC1)CN(C(=O)[C@@H]1CSCN1)c1ccc(Cl)cc12.O=C(O)C(F)(F)F` | -25.85 | -20.54 |
| 67 | `CCc1nnc(CN2CCC(N3CCN(CC)C3=O)CC2)o1` | -8.556 | -15.99 |
| 68 | `Cc1ncc2c(n1)CN(Cc1ncc(C(C)(C)C)o1)CC2` | -4.021 | 4.854 |
| 69 | `Cc1nc(CNC(=O)Nc2c(C)n[nH]c2C)cs1` | 4.838 | -2.046 |
| 70 | `CC1(C(=O)N2CCOCC2)CNCCO1.Cl` (stereo not drawn) | -2.674 and 11.89 | -2.705 |
| 71 | `CN(C)CCN1CCC2(CC1)CN(c1cccnc1)C(=O)CO2` | -30.1 | -13.07 |
| 72 | `CSc1ccc(CN(C(=O)c2cc[nH]n2)C2CC2)cc1` | 11.7 | 3.062 |

The last 4 entries again:

{"structure": "Cc1nc(CNC(=O)Nc2c(C)n[nH]c2C)cs1", "Mtb cholesterol medium": 4.838, "Mtb glucose medium": -2.046}
{"structure": "CC1(C(=O)N2CCOCC2)CNCCO1.Cl", "stereo": "stereo not drawn", "Mtb cholesterol medium": "-2.674 and 11.89", "Mtb glucose medium": -2.705}
{"structure": "CN(C)CCN1CCC2(CC1)CN(c1cccnc1)C(=O)CO2", "Mtb cholesterol medium": -30.1, "Mtb glucose medium": -13.07}
{"structure": "CSc1ccc(CN(C(=O)c2cc[nH]n2)C2CC2)cc1", "Mtb cholesterol medium": 11.7, "Mtb glucose medium": 3.062}

Measurements from “University of Dundee, Small-Polar-MMV Screening Library” (2021), ChEMBL document CHEMBL3988442.